Assay results taken from PubChem BioAssay AID2551 (National Center for Advancing Translational Sciences (NCATS), 2010).
Out of some 310,000 compounds screened, about 17,000 (5.5%) were called active. Inconclusive means that the source gave no clear call. Such entries were picked first, then a sample of the others. Calls follow the shape of the dose curve; as a rule, active = well fitted inhibition curve with a large enough effect; inconclusive = small, poorly fitted or top-dose-only effect, or effect the other way; inactive = no such curve, though single readings can be large or run the other way. Potencies of inconclusive entries are doubtful fits and often do not repeat.

Sequences of proteins named here, by UniProt entry; tags and fusion partners are left off. A change or cut given only in a name is not applied to a line headed by its entry.
UniProt P51450: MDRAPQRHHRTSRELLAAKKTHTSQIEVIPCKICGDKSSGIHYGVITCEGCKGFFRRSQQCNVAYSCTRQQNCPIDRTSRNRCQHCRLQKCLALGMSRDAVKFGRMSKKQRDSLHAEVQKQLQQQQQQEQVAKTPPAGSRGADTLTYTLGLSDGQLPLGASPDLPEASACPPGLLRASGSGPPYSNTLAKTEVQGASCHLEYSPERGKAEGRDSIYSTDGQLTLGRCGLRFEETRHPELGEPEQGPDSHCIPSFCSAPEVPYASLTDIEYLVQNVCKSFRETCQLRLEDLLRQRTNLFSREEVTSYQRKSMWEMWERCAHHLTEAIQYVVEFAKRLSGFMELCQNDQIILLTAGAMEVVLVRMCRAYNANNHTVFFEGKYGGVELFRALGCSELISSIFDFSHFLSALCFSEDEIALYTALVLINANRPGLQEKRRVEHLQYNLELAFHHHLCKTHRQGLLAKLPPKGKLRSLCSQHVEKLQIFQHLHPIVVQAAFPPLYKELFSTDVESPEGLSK

Target: Nuclear receptor ROR-gamma (Mus musculus) (UniProt P51450)
Assay: qHTS for inhibitors of ROR gamma transcriptional activity; also: nearly all actives have a fitted effect of over 60% in size
Conditions: Drosophila S2 Gal4-RORgamma UAS-luciferase reporter, 20 h; activity change, negative = inhibition: at 53.6 µM (top of the series)
Procedure, shortened: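 Stable Schneider cell line, Gal4 DNA-binding domain fused to ROR gamma, UAS-luciferase. Cmpd 1 hr RT → CuSO4 700 uM final → 20 hr RT → luciferase reagent 10 min → luminescence.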
% is scaled to controls: 0 for no effect and ±100 for the full control effect; potency is read from the fitted curve at half-maximal effect.

Potency, inconclusive:
CCCC[C@@H]1C[C@H]1[C@@H](NP(=O)(c1ccccc1)c1ccccc1)c1ccccc1OC 35.5 µM [inhibitor, single point]
C[n+]1nc(Nc2cccc3ccccc23)sc1-c1ccc(C(=O)O)cc1 12.6 µM [activator, single point]
O=C(COC(=O)[C@@H]1CC(O)CN1S(=O)(=O)c1ccccc1[N+](=O)[O-])Nc1ccc2ccccc2c1 (some centres not stated) 22.4 µM [activator, single point]
CC(NC(=O)CCc1nnc(-c2ccccc2)o1)c1ccccc1 (configuration not stated) 3.98 µM [activator, full curve, poor fit]
C#Cc1ccc([C@@H]2C=C(C(=O)N3CCN(Cc4ccccc4)CC3)O[C@H](OCCCCO)C2)cc1 7.94 µM [activator, partial curve]
N=c1c2c(ncn1Cc1ccco1)Oc1c(ccc3ccccc13)C2c1ccccc1 (configuration not stated) 35.5 µM [inhibitor, single point]
CCCC(=O)NNc1cc(=O)c2c(=O)n(C)c(=O)n(C)c2[nH]1 6.31 µM [inhibitor, single point]
COc1ccc(/C=C/C(=O)N/C(=C\c2ccco2)C(=O)NCCc2nc3ccccc3[nH]2)cc1 35.5 µM [activator, single point]
Oc1ccc(Br)cc1CNc1cnc2ccccc2c1 12.6 µM [activator, partial curve]
COc1ccc(NC(C)=O)cc1CNC(=O)COc1ccccc1C(=O)Nc1cccc(C)c1C 11.2 µM [activator, partial curve, poor fit]
COc1ccc(/C=N/NC(=O)c2cccc(COCC(F)(F)C(F)F)c2)cc1 14.1 µM [inhibitor, single point]
C=C1C[C@H](OC(=O)C(C)(O)CCl)C2C(=C)C(=O)O[C@@H]2C2C1C[C@H](O)[C@]2(O)CCl (some centres not stated) 28.2 µM [inhibitor, single point]
Cn1nccc1/C=N\NC(=O)c1ccc(Cl)cc1 17.8 µM [inhibitor, partial curve, poor fit]
CC(=O)Nc1ccc(-c2nnc(SCC(=O)c3ccc4c(c3)Cc3ccccc3-4)n2C)cc1 35.5 µM [inhibitor, single point]
CSc1ccc(NC(=O)NCCCN2CCC(Cc3ccccc3)CC2)cc1 35.5 µM [inhibitor, single point]
COC(=O)c1ccc(C(=O)N(Cc2ccccc2)c2ccccc2)cc1 35.5 µM [activator, single point]
CS(=O)(=O)Cc1nc2ccccc2oc1=O 10 µM [inhibitor, partial curve]
Cc1cnc(NC(=O)CSc2ncn(-c3ccccc3)n2)s1 12.6 µM [inhibitor, partial curve, poor fit]
CCOC(=O)c1c(NC(NC(C)=O)C(Cl)(Cl)Cl)sc2c1CCCC2 (configuration not stated) 35.5 µM [activator, single point]
CCCOc1ccc(C(=O)CCN2CCCCC2)cc1 22.4 µM [inhibitor, partial curve, poor fit]
CCn1c(C(=O)N2CCC(C(=O)N3CCN(c4ccccn4)CC3)CC2)cc2sccc21 7.08 µM [activator, partial curve, poor fit]
Cc1nnc(N/N=C/c2ccc(Br)cc2)n1N 15.8 µM [inhibitor, single point]
Cc1cccc(NC(=O)COc2nsnc2N2CCOCC2)c1 11.2 µM [activator, single point]
COc1ccc(N(CC(=O)NCCSCc2ccc(Cl)cc2)S(C)(=O)=O)cc1Cl 12.6 µM [activator, single point]
CC1=CC(=NOC(=O)c2cccc([N+](=O)[O-])c2)C=C(C)C1=O 25.1 µM [inhibitor, single point]
Cc1ccc2c(c1)-c1cc(C)nn1C(c1ccc3c(c1)OCO3)N2 (configuration not stated) 12.6 µM [activator, single point]
Cc1ccc(N2C(=O)CC(Sc3nc(-c4ccccc4)c4cc(Cl)ccc4n3)C2=O)c(C)c1 (configuration not stated) 1.41 µM [inhibitor, partial curve]
COc1cc(NC(=O)CCc2nnc3ccc(N4CCN(c5cccc(OC)c5)CC4)nn23)cc(OC)c1 35.5 µM [inhibitor, single point]
Cc1ccc(NC(=S)NC2CCN(Cc3ccccc3)CC2)c(C)c1 15.8 µM [inhibitor, single point]
CC(C)n1c2ccccc2c2nc3ccccc3nc21 35.5 µM [inhibitor, single point]
CCOC(=O)c1ccc(NC(=O)CN2CCc3ccccc3C2)cc1 31.6 µM [activator, single point]
CN(CCCC1CCCC1)C(=O)c1cc(COc2ccc(F)cc2F)on1 22.4 µM [activator, single point]
CC1CCc2sc(C(=O)NNC(=S)NCC3CCCO3)cc2C1 (configuration not stated) 7.94 µM [inhibitor, partial curve, poor fit]
COc1ccccc1CNC(=O)/C(C#N)=C/c1ccc(OC)c(OC)c1OC 35.5 µM [inhibitor, single point]
O=c1/c(=C/c2ccccn2)sc2nc3ccccc3n12 3.98 µM [inhibitor, full curve, poor fit]
CCCc1nc(SCC(=O)N2CCC(Cc3ccccc3)CC2)c2c(=O)n(C)c(=O)n(C)c2n1 11.2 µM [activator, single point]
COCCNC(=S)Nc1cc(OC)c(OC)cc1C#N 25.1 µM [inhibitor, single point]
Cc1cc(C)nc(NS(=O)(=O)c2ccc(NC(=O)CN3C(=O)S/C(=C\c4ccccc4)C3=O)cc2)n1 12.6 µM [activator, single point]
Cc1ncc(CO)c(CNc2ccc(-c3nc4ccccc4[nH]3)cc2)c1O 10 µM [inhibitor, partial curve]
CC(C)N1CCc2c(sc(NC(=O)c3cc4cc([N+](=O)[O-])ccc4s3)c2C(N)=O)C1 25.1 µM [inhibitor, single point]

Gathered by group, the compounds so far containing a nitro group on carbon.
Potency, inconclusive:
O=C(COC(=O)[C@@H]1CC(O)CN1S(=O)(=O)c1ccccc1[N+](=O)[O-])Nc1ccc2ccccc2c1 (some centres not stated) 22.4 µM [activator, single point]
CC1=CC(=NOC(=O)c2cccc([N+](=O)[O-])c2)C=C(C)C1=O 25.1 µM [inhibitor, single point]
CC(C)N1CCc2c(sc(NC(=O)c3cc4cc([N+](=O)[O-])ccc4s3)c2C(N)=O)C1 25.1 µM [inhibitor, single point]

Following part:

Potency, active:
Cc1sc(NC(=S)Nc2ccc(F)cc2)c(C(N)=O)c1C 8.91 µM
S=c1nccc(-c2ccc(Cl)cc2)[nH]1 2.82 µM
CCOc1ccc(OCc2ccc(C(=O)N/N=C(\C)c3ccccn3)cc2)cc1 0.112 µM
CC(=O)c1c(N2CCN(Cc3ccccc3)CC2)[nH]c(-c2ccccc2)nc1=S 14.1 µM
Clc1cccc(Cl)c1/C=C/c1nc2ccccc2[nH]1 11.2 µM
CC(C)OCCCn1c(=S)[nH]c2ncccc2c1=O 8.91 µM
CCCC(=O)N/C(N)=N/c1nc(C)c2ccccc2n1 1.12 µM
CC(CNC(=S)Nc1cc(F)cc(F)c1)CSc1ccc(Cl)cc1 (configuration not stated) 8.91 µM
Cc1ccc(C(=O)NC(=S)Nc2cccc(NC(=O)c3ccccc3Cl)c2)cc1[N+](=O)[O-] 5.62 µM
COc1ccc(C(=O)NC(=S)NCc2ccco2)cc1OC 17.8 µM
Cc1ccccc1NC(=S)Nc1ccccn1 0.501 µM
CCOC(=O)/C(=N\Nc1ncnc2ccccc12)c1ccc(OC)cc1 7.08 µM
COc1ccc(-c2cc(C(=O)c3c(N)n(C)c(=O)n(C)c3=O)c3ccccc3n2)cc1 14.1 µM

Activity change, negative = inhibition, inactive:
CCn1c(=O)c(C(=O)NCc2ccccc2OC)c(O)c2ccccc21 -30.1%
CCOc1ccc(N(C)S(=O)(=O)c2ccc3[nH]cc(C(=O)NCC4CCCO4)c(=O)c3c2)cc1 (configuration not stated) 8.6%
S=c1[nH]nc(COc2ccccc2)n1/N=C/c1cccnc1 -56%
COc1ccc(-n2c(C)csc2=S)cc1 13.1%
CSc1nnc2c(n1)OC(C)=Nc1ccccc1-2 -1.83%
CCCCCN(C(=O)CCC(=O)OCc1ccccc1C(F)(F)F)c1c(N)n(CCCC)c(=O)[nH]c1=O 27.7%
CCOC(=O)c1sc2nc(C)c3c(c2c1N)CC(C)(C)OC3 -1.41%
O=C(CSc1nnnn1C1CCCCC1)Nc1nc2c(s1)CCCC2 -36.8%
CCC(C)N(C(=O)COC(=O)c1cc([N+](=O)[O-])ccc1N)C1CCS(=O)(=O)C1 (configuration not stated) -7.12%
Cc1nc(N2CCc3ccccc3C2)[nH]c(=O)c1Cc1ccccc1 43.6%
CCCc1nc(SCc2cccnc2)c2c(=O)n(C)c(=O)n(C)c2n1 19.4%
N#Cc1cnc(N)c(Br)c1 -1.5%
Cc1ccc(-n2c(=O)c3sccc3n(CC(=O)NCc3ccco3)c2=O)cc1 3.61%
Cc1ccc(CC2CC(=O)N(C(Cc3ccccc3)C(=O)O)C2=O)cc1 (configuration not stated) 6.28%
O=C(NCCNC(=O)c1ccc(Cl)cc1Cl)c1cnccn1 0.441%
CC(=O)c1cccc(Nc2ncnc3ccc(Br)cc23)c1 3.26%
Nc1c(C(=O)Nc2ccccc2)c2nc3ccccc3nc2n1-c1ccc(O)cc1 -44.2%
COC(=O)[C@H](CCSC)NS(=O)(=O)c1ccccc1Br 4.84%
COc1ccc(CCN(CC(=O)NC2CCCC2)C(=O)Cn2nnc(-c3ccc(C)o3)n2)cc1OC 24%
